Results deposited as PubChem BioAssay AID1259254 (NCATS, 2017)
The whole screen tested about 59,000 reagents; this is a random part of them. Of all reagents, about 1,550 (2.6%) are marked active. 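G2 share is only a proxy for re-replication; each gene was hit by three separate siRNAs, and active genes were retested.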 The raw values are shown without normalisation. Entries without a mark were called inactive. Reagents against one gene are numbered here. Not stated in the record: the amount of reagent.

Screen: 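Gene knock-downs that lead to re-replication, shown by excess G2 DNA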 (primary screen)
System: human HCT116 colorectal cancer cells
Reagents: single siRNA against human genes
Timing: 3 days
Measured: 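Nuclei stained with Hoechst and imaged; cell-cycle phase assigned by DNA content; G2 share scaled per plate, non-targeting siRNA 0%, GMNN siRNA 100%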
Scale: G2 robust z-score and G2 cells, % of GMNN control: higher = more G2 cells, more excess DNA replication; raw share of cells in G2: higher = larger share of cells with G2 DNA content
Hit rule: 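An siRNA counts as active if its G2 robust z-score lies at least 5 MADs above the screen median; here such calls match roughly 38% of GMNN control or more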

| gene | reagent | G2 robust z-score | G2 cells, % of GMNN control | raw share of cells in G2 (%) |
| --- | --- | --- | --- | --- |
| HAPLN2 (hyaluronan and proteoglycan link protein 2) | 1 | -0.761 | -2.39 | 2.07 |
| HAPLN2 (hyaluronan and proteoglycan link protein 2) | 2 | -0.897 | -3.35 | 3.12 |
| HAPLN2 (hyaluronan and proteoglycan link protein 2) | 3 | 1.22 | 11.6 | 9.78 |
| CRB3 (crumbs cell polarity complex component 3) | 1 | 0.316 | 5.19 | 4.57 |
| CRB3 (crumbs cell polarity complex component 3) | 2 | 1.01 | 10.1 | 8.36 |
| CRB3 (crumbs cell polarity complex component 3) | 3 | -0.00546 | 2.93 | 3.92 |
| APLP2 (amyloid beta precursor like protein 2) | 1 | 0.288 | 4.99 | 7.64 |
| APLP2 (amyloid beta precursor like protein 2) | 2 | 0.178 | 4.22 | 5.63 |
| APLP2 (amyloid beta precursor like protein 2) | 3 | -0.681 | -1.82 | 2.81 |
| MTOR (mechanistic target of rapamycin kinase) | 1 | -0.92 | -3.51 | 4.45 |
| MTOR (mechanistic target of rapamycin kinase) | 2 | -0.462 | -0.286 | 5.31 |
| MTOR (mechanistic target of rapamycin kinase) | 3 | -0.511 | -0.625 | 3.8 |
| SMTN (smoothelin) | 1 | 1.61 | 14.3 | 11 |
| SMTN (smoothelin) | 2 | -0.221 | 1.41 | 4.78 |
| SMTN (smoothelin) | 3 | -0.622 | -1.41 | 2.85 |

Next part (3 carried over from the part before).
| gene | reagent | G2 robust z-score | G2 cells, % of GMNN control | raw share of cells in G2 (%) |
| --- | --- | --- | --- | --- |
| SMTN (smoothelin) | 1 | 1.61 | 14.3 | 11 |
| SMTN (smoothelin) | 2 | -0.221 | 1.41 | 4.78 |
| SMTN (smoothelin) | 3 | -0.622 | -1.41 | 2.85 |
| ATOH7 (atonal bHLH transcription factor 7) | 1 | 2.69 | 21.9 | 13.9 |
| ATOH7 (atonal bHLH transcription factor 7) | 2 | -0.605 | -1.29 | 5.34 |
| ATOH7 (atonal bHLH transcription factor 7) | 3 | -1.05 | -4.43 | 3.08 |
| COG8 (component of oligomeric golgi complex 8) | 1 | 0.683 | 7.77 | 7.66 |
| COG8 (component of oligomeric golgi complex 8) | 2 | -0.727 | -2.15 | 3.42 |
| COG8 (component of oligomeric golgi complex 8) | 3 | -0.506 | -0.592 | 5.18 |
| IGFBP1 (insulin like growth factor binding protein 1) | 1 | 8.26 (active) | 61.1 | 27.4 |
| IGFBP1 (insulin like growth factor binding protein 1) | 2 | -0.341 | 0.567 | 5.57 |
| IGFBP1 (insulin like growth factor binding protein 1) | 3 | 0.666 | 7.65 | 6.89 |
| ZWINT (ZW10 interacting kinetochore protein) | 1 | 1.8 | 15.6 | 11.1 |
| ZWINT (ZW10 interacting kinetochore protein) | 2 | -0.857 | -3.06 | 2.87 |
| ZWINT (ZW10 interacting kinetochore protein) | 3 | 0.922 | 9.45 | 6.71 |
| NRXN1-DT (NRXN1 divergent transcript) | 1 | 0.482 | 6.36 | 6.16 |
| NRXN1-DT (NRXN1 divergent transcript) | 2 | 0.673 | 7.7 | 6.67 |
| NRXN1-DT (NRXN1 divergent transcript) | 3 | -0.598 | -1.24 | 3.04 |
